Measurements taken from paper PMC3429922.
Construct, isoform or probe ends are uncertain for at least one entry. Results from cells or extracts need not show a direct contact. A weaker result is weaker than the reference pair of the same experiment. At least one verdict rests on a figure or table, not on a statement of the authors.

Protein sequences, listed by entry. Tags and fused reporters are not part of them. Lines headed by an entry give the natural chain unless they say otherwise; changes in a name come on top.
UniProt Q2VWH6: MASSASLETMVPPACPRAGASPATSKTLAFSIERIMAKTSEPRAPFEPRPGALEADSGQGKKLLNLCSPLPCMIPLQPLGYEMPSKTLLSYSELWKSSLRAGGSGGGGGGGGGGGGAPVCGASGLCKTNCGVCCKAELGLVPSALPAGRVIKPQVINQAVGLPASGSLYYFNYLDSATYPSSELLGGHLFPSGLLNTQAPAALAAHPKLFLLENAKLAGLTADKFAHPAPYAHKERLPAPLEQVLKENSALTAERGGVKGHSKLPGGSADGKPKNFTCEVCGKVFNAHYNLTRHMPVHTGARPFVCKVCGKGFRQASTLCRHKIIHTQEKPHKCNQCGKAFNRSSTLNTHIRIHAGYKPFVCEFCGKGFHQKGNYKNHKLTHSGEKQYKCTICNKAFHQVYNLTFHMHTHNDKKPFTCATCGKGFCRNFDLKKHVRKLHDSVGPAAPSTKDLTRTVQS

Molecular target: FEZL (forebrain embryonic zinc finger-like) (Bos taurus) (UniProt Q2VWH6)
Test: EMSA competition
Details: Promega gel shift assay system, COS7 nuclear extract, 4-20% TBE gel (supershift), 6% retardation gel (competition), pH and temperature not stated, protein in an extract

Sequence	binding result (relative to 10C)	binding result (long C stretch bound stronger than shorter ones)
CACCCCCCCCCTTTTTTTTTTTTGA (double strand) [9C]	binds more weakly	
CACCCCCCCCCCTTTTTTTTTTTTGA (double strand) [10C]		binds
CACCCCCCCCTTTTTTTTTTTTGA (double strand) [8C]	binds more weakly	
